According to US20140186348A1:
These are yes or no findings as the source states them, for the method shown. Some binding calls cover weakened binding; strength is not graded here.

The chains behind the UniProt entries cited, without tags or fusion partners. Residues count along the entry.
UniProt P27918, residues 28-469: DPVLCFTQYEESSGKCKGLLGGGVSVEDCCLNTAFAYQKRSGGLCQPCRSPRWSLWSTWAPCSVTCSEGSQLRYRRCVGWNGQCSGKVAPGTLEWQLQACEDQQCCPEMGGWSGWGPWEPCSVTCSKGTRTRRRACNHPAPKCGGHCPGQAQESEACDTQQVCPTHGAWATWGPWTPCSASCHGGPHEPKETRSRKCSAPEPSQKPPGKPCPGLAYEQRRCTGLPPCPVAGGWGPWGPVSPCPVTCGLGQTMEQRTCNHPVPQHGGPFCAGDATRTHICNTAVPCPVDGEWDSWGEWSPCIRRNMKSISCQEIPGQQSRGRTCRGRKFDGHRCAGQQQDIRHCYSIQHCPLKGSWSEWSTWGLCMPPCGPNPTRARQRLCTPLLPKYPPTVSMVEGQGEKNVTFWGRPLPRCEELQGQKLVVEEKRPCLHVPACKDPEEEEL

Key:
human properdin (human) [1] = target: human properdin (human) (UniProt P27918); assay: ELISA on properdin-coated plate
human properdin (human) [2] = target: human properdin (human) (UniProt P27918); assay: ELISA on properdin-coated plate (FIG. 2)
human properdin (human) [3] = target: human properdin (human) (UniProt P27918); assay: ELISA on properdin-coated plate, anti-mouse peroxidase detection
human properdin (human) [4] = target: human properdin (human) (UniProt P27918); assay: saturation ELISA (FIG. 30)
human properdin (human) [5] = target: human properdin (human) (UniProt P27918); assay: properdin binding (FIG. 18)
human properdin (human) [6] = target: human properdin (human) (UniProt P27918); assay: saturation ELISA, biotinylated antibody on properdin-coated plate

Measured: binding

B1: NM9401-F(ab′)2 (protein)
VH: QVQLQQSAPELARPGASVKMSCTASGYIFTNYPIHWVKQRPGQGLEWIGFIDPGGGYDEPDERFRDRATLTADKSSSTAYMQLSSLTSEDSAIYYCARRGGGYYLDYWGQGTTLTVSSAKTT
VL: DIQMTQTTSSLSASLGDRVTISCRASQDISFFLNWYQQKPDGTVKLLIYYTSRYHSGVPSRFSGSGSGTDFSLTINNLEQEDFATYFCQHGNTLPWTFGGGTKLEIKRADAAPTVSIFPPSSEQLTSGGASVVCFLNN
binds: human properdin (human) [1] | human properdin (human) [2] | human properdin (human) [3]

B2: NM9401-IgG (murine anti-properdin monoclonal antibody, IgG1) (antibody, V domains shown)
VH: QVQLQQSAPELARPGASVKMSCTASGYIFTNYPIHWVKQRPGQGLEWIGFIDPGGGYDEPDERFRDRATLTADKSSSTAYMQLSSLTSEDSAIYYCARRGGGYYLDYWGQGTTLTVSS
VL: DIQMTQTTSSLSASLGDRVTISCRASQDISFFLNWYQQKPDGTVKLLIYYTSRYHSGVPSRFSGSGSGTDFSLTINNLEQEDFATYFCQHGNTLPWTFGGGTKLEIKR
binds: all assays above

B3: NM9401-Fab (Fab, V domains shown)
VH: B2 VH
VL: B2 VL
binds: human properdin (human) [2] | human properdin (human) [3]
